{
  "source": "the supplement of paper PMC6411743",
  "test_in_all_cases": "NP40-soluble protein abundance relative to vehicle (solubility fold change) (ratio); higher = more soluble protein in presence of AMP-PNP",
  "key": {"[1]": {"target": "T1, CDS2 (UniProt O95674)", "T1 sequence (whole entry)": "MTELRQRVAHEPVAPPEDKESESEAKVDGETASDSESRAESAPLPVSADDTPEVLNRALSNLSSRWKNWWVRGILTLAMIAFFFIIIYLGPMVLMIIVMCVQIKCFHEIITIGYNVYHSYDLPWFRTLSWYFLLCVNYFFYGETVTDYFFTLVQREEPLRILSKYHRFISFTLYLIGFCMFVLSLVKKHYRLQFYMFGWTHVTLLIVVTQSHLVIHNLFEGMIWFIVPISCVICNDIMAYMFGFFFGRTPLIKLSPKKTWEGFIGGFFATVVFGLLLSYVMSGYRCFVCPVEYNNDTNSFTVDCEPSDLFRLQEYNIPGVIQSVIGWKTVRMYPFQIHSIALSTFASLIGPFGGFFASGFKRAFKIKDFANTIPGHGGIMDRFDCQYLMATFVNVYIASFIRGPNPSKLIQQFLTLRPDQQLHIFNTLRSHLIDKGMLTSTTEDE", "in_short": "(§1)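 Data come from three independent experiments in which Dounce-homogenised Jurkat crude lysate was treated at eight concentrations from 0.1 to 10 mM. Treatment ran 10 min at room temperature and then 3 min at 37 °C, after which 0.8% NP40 and benzonase were added for 60 min at 4 °C before ultracentrifugation. The supernatant underwent TMT labelling and LC-MS/MS, and vsn-normalised intensities were expressed as fold change against the detergent-processed vehicle in each replicate.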"}, "[2]": {"target": "T2, DOK2 (UniProt O60496)", "T2 sequence (whole entry)": "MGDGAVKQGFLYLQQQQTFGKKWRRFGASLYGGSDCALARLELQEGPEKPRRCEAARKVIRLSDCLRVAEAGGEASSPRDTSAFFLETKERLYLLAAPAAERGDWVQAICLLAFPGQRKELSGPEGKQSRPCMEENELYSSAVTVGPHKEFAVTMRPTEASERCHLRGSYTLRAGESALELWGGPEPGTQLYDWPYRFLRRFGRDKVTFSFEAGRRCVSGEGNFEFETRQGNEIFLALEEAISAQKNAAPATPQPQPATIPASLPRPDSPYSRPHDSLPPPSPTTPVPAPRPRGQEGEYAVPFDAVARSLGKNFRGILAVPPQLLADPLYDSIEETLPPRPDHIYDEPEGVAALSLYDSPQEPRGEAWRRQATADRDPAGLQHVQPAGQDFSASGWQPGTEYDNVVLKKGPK", "in_short": "as §1"}, "[3]": {"target": "T3, LCMT2 (UniProt O60294)", "T3 sequence (whole entry)": "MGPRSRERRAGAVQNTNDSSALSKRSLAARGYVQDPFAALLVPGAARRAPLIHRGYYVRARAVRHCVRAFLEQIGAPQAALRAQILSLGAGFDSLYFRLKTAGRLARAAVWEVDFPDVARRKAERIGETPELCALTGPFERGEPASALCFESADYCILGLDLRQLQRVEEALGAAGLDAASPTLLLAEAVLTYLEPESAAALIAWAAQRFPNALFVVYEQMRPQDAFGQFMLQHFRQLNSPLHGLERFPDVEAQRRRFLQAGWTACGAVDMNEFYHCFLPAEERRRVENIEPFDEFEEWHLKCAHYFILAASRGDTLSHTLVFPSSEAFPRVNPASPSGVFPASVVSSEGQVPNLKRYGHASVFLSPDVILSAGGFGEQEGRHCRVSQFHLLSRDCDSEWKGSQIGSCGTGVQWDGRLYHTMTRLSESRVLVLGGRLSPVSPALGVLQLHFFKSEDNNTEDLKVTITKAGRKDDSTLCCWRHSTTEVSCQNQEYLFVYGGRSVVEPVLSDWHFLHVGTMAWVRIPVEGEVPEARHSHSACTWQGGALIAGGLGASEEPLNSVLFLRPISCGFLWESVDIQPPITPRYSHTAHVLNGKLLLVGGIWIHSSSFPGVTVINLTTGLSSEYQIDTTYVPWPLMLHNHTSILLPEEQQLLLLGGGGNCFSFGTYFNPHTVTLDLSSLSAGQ", "in_short": "as §1"}, "[4]": {"target": "T4, MFN2 (UniProt O95140)", "T4 sequence (whole entry)": "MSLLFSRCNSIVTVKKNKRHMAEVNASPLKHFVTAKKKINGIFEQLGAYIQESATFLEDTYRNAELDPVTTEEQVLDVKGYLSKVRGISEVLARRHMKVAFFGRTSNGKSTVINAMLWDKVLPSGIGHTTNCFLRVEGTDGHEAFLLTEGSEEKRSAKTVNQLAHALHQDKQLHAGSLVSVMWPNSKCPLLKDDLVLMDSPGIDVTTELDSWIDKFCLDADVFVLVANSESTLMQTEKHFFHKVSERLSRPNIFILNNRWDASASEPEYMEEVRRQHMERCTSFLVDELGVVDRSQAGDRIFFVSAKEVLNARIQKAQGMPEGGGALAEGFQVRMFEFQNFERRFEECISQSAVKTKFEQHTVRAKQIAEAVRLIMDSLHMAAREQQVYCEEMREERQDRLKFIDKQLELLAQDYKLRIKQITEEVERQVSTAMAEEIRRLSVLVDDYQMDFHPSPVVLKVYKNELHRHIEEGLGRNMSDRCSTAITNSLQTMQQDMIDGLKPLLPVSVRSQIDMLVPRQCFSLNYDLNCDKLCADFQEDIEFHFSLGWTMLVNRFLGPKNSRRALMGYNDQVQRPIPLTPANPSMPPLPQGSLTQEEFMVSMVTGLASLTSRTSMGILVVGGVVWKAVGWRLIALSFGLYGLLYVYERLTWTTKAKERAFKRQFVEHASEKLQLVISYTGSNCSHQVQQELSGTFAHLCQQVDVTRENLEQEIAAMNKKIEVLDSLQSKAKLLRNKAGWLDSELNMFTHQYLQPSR", "in_short": "as §1"}, "[5]": {"target": "T5, PGLS (UniProt O95336)", "T5 sequence (whole entry)": "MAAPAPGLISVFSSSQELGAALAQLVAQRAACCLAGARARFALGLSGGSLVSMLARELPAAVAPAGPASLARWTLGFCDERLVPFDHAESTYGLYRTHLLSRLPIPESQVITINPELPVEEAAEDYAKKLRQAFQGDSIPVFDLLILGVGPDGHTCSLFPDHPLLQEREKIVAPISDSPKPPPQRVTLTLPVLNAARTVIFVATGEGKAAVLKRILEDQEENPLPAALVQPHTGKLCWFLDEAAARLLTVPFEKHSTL", "in_short": "as §1"}},
  "note": "± gives the standard deviation of the averaged measurements. The entries are a selection whose mix differs from that of the whole data set.",
  "data": [
    {"smiles": "Nc1ncnc2c1ncn2[C@@H]1O[C@H](COP(=O)(O)OP(=O)(O)NP(=O)(O)O)[C@@H](O)[C@H]1O", "note": "[adenylyl imidodiphosphate]", "values": [
      {"measurement": "NP40-soluble protein abundance", "setting": "[1]; concentration: 1mM", "value": "1.015 ± 0.0065"},
      {"measurement": "NP40-soluble protein abundance", "setting": "[1]; concentration: 2mM", "value": "1.02 ± 0.034"},
      {"measurement": "NP40-soluble protein abundance", "setting": "[1]; concentration: 4mM", "value": "0.993 ± 0.055"},
      {"measurement": "NP40-soluble protein abundance", "setting": "[1]; concentration: 6mM", "value": "0.988 ± 0.031"},
      {"measurement": "NP40-soluble protein abundance", "setting": "[1]; concentration: 8mM", "value": "0.98 ± 0.04"},
      {"measurement": "NP40-soluble protein abundance", "setting": "[1]; concentration: 10mM", "value": "0.995 ± 0.052"},
      {"measurement": "NP40-soluble protein abundance", "setting": "[2]; concentration: 1mM", "value": "1.01 ± 0.048"},
      {"measurement": "NP40-soluble protein abundance", "setting": "[2]; concentration: 2mM", "value": "0.994 ± 0.041"},
      {"measurement": "NP40-soluble protein abundance", "setting": "[2]; concentration: 4mM", "value": "1.01 ± 0.03"},
      {"measurement": "NP40-soluble protein abundance", "setting": "[2]; concentration: 6mM", "value": "1.02 ± 0.02"},
      {"measurement": "NP40-soluble protein abundance", "setting": "[2]; concentration: 8mM", "value": "0.9749 ± 0.00029"},
      {"measurement": "NP40-soluble protein abundance", "setting": "[2]; concentration: 10mM", "value": "1 ± 0.0035"},
      {"measurement": "NP40-soluble protein abundance", "setting": "[3]; concentration: 1mM", "value": "0.973 ± 0.011"},
      {"measurement": "NP40-soluble protein abundance", "setting": "[3]; concentration: 2mM", "value": "0.955 ± 0.023"},
      {"measurement": "NP40-soluble protein abundance", "setting": "[3]; concentration: 4mM", "value": "0.985 ± 0.023"},
      {"measurement": "NP40-soluble protein abundance", "setting": "[3]; concentration: 6mM", "value": "0.987 ± 0.028"},
      {"measurement": "NP40-soluble protein abundance", "setting": "[3]; concentration: 8mM", "value": "0.9927 ± 0.006"},
      {"measurement": "NP40-soluble protein abundance", "setting": "[3]; concentration: 10mM", "value": "0.9858 ± 0.0033"},
      {"measurement": "NP40-soluble protein abundance", "setting": "[4]; concentration: 1mM", "value": "1.01 ± 0.064"},
      {"measurement": "NP40-soluble protein abundance", "setting": "[4]; concentration: 2mM", "value": "0.956 ± 0.032"},
      {"measurement": "NP40-soluble protein abundance", "setting": "[4]; concentration: 4mM", "value": "1.01 ± 0.074"},
      {"measurement": "NP40-soluble protein abundance", "setting": "[4]; concentration: 6mM", "value": "0.965 ± 0.037"},
      {"measurement": "NP40-soluble protein abundance", "setting": "[4]; concentration: 8mM", "value": "0.986 ± 0.049"},
      {"measurement": "NP40-soluble protein abundance", "setting": "[4]; concentration: 10mM", "value": "0.989 ± 0.024"},
      {"measurement": "NP40-soluble protein abundance", "setting": "[5]; concentration: 1mM", "value": "0.972 ± 0.046"},
      {"measurement": "NP40-soluble protein abundance", "setting": "[5]; concentration: 2mM", "value": "0.962 ± 0.025"},
      {"measurement": "NP40-soluble protein abundance", "setting": "[5]; concentration: 4mM", "value": "0.987 ± 0.045"}
    ]}
  ]
}
